Reference: PubChem BioAssay AID540303 (National Center for Advancing Translational Sciences (NCATS), 2011)
In all, about 330,000 compounds went through this assay and about 1,000 (0.3%) were called active. Inconclusive results, whose numbers are uncertain, are shown with a selection of clear calls. Calls come from the whole dose curve; as a rule, active = well fitted inhibition curve with a large enough effect; inconclusive = small, poorly fitted or top-dose-only effect; inactive = no such curve, though single readings can be large or run the other way; tested in mouse RAW 264.7 cells. A potency beside an inconclusive call is a rough fit, not a confirmed value. Where a structure was tested more than once in an assay, its records may differ in their call.

assay: qHTS for Inhibitors of Cell Surface uPA Generation; settings: cell surface uPA generation assay; series mostly up to 38.3 µM; note: nearly all actives have a fitted effect of over 55% in size
In short: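 RAW 264.7 cells (4000/well) were plated overnight at 37 C and then given compounds in a 1:5 series (up to 38.3 uM final) plus reagent for 24 h. Intracellular ATP was measured by ATP-Lite luminescence and stays elevated when uPA-dependent LF entry is blocked.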
Potency is the fitted concentration of half-maximal effect.

| Compound | Potency |
| --- | --- |
| CC1(C)CC(=O)C=C(c2ccc(F)cc2OCc2ccccc2)C1 | inconclusive: 11.2 µM [inhibitor, partial curve, poor fit] |
| CCOC(=O)c1c(NC(=S)NNS(=O)(=O)c2ccc(Br)cc2)sc2c1CCCCC2 | inactive |
| COc1ccc(/C=C/C(=O)c2ccc(O)cc2)cc1COc1ccc(F)cc1 | inconclusive: 7.94 µM [inhibitor, partial curve, poor fit] |
| O=c1cc(-c2ccsc2)oc2ccc(-c3ccc4cc[nH]c4c3)cc12 | inconclusive: 10 µM [inhibitor, partial curve, poor fit] |
| O=[N+]([O-])c1ccc(O)c(-c2nc(-c3ccccc3)c(-c3cccs3)[nH]2)c1 | inactive |
| O=[N+]([O-])c1ccc(-c2c(-c3ccccc3)ncc3ccc(F)cc23)cc1 | inactive |
| COc1ccc([C@H]2CC(=O)C=C(c3cc(C)ccc3F)C2)cc1 | inconclusive: 12.6 µM [inhibitor, single point] |
| COc1ccc(/C=C/C(=O)c2ccc(OC)cc2OC)c(OC)c1 | inconclusive: 10 µM [inhibitor, partial curve, poor fit] |
| O=C(c1ccc(Br)cc1)c1cc([N+](=O)[O-])ccc1N1CCOCC1 | inconclusive: 2 µM [inhibitor, full curve, poor fit] |
| CC1CN(C(=O)CCC(=O)NCc2ccc(F)cc2)c2ccccc2S1 (stereo not drawn) | inconclusive: 11.2 µM [inhibitor, partial curve, poor fit] |
| CCN(CCCNC(=O)CNC(=O)c1nn(-c2ccc(OC)cc2OC)c(=O)c2ccccc12)c1cccc(C)c1 | inactive |
| c1ccc(CCNc2ncnc3nc[nH]c23)cc1 | inactive |
| NC(=S)c1ncc(C(F)(F)F)cc1Cl | inactive |
| O=C(CSc1nnnn1C1CCCCC1)Nc1cccc(NC(=O)c2ccco2)c1 | inactive |
| O=C(N/N=C/c1ccc([N+](=O)[O-])o1)c1cc2c(ccc3ccccc32)o1 | inconclusive: 1.12 µM [inhibitor, full curve, poor fit] |
| C[C@@H](NCCCn1ccc(NC(=O)OCc2ccccc2)nc1=O)c1cccc2ccccc12 | inconclusive: 25.1 µM [inhibitor, single point] |
| C[C@H](C[C@H](O)[C@H]1OC1(C)C)C1=C2C[C@H](O)C3[C@@]4(C)CCC(=O)C(C)(C)C4CC[C@]3(C)[C@@]2(C)CC1 (stereo partly drawn) | inconclusive: 10 µM [inhibitor, partial curve, poor fit] |
| CC(=O)N1CCc2c(sc(NC(=O)c3ccc4c(c3)OCCO4)c2C#N)C1 | active: 7.94 µM |
| CC1CCC(NC(=O)CN2C(=O)NC3(CCCCC3C)C2=O)CC1 (stereo not drawn) | inconclusive: 3.16 µM [inhibitor, partial curve, poor fit] |
| Cc1nc2c3cc(F)ccc3n(Cc3ccccc3)c2s1 | inconclusive: 4.47 µM [inhibitor, full curve, poor fit] |
| COc1ccc(C(=O)OCC(=O)NC2CC2)cc1S(=O)(=O)N(C)Cc1ccccc1 | inactive |
| Oc1ccccc1-c1nnc(COc2ccc(Cl)cc2Cl)o1 | inconclusive: 3.55 µM [inhibitor, partial curve, poor fit] |
| O=c1[nH]c(-c2ccc(F)cc2)nc2c1sc(=S)n2-c1ccccc1 | inactive |

| Compound | Potency |
| --- | --- |
| O=C(Nc1ccccc1Cl)N1CCN(c2ccc3nnc(-c4ccccc4)n3n2)CC1 | inconclusive: 6.31 µM [inhibitor, single point] |
| Cc1ccccc1C(=O)NNC(=O)c1cc(S(=O)(=O)N2CCOCC2)ccc1C | inconclusive: 3.98 µM [inhibitor, partial curve, poor fit] |
| C=CC[C@@H](CC(=O)N[C@H](CO)Cc1ccccc1)C(=O)N[C@H](C)COC(=O)[C@@H](CC=C)Cc1ccc(F)cc1 | inconclusive: 5.01 µM [inhibitor, partial curve] |
| O=C(O)c1cccc(N2C(=S)N=C(Nc3ccccc3)C23CCCCC3)c1 | inactive |
| O=C(NC(=S)Nc1ccccn1)c1ccccc1 | inconclusive: 2.24 µM [inhibitor, partial curve, poor fit] |
| CCN(c1ccc(OC)cc1)S(=O)(=O)c1ccc(-c2ccc(=O)[nH]n2)o1 | inconclusive: 3.16 µM [inhibitor, partial curve, poor fit] |
| Cc1ccccc1N1CCN(S(=O)(=O)Cc2ccccc2)CC1 | inactive |
| COc1ccccc1/C=C1\CCC(C2CCCC2)C1=O (stereo not drawn) | inactive |
| COc1ccccc1NC(=S)NC1CCCCCCCCCCC1 | inconclusive: 2.24 µM [inhibitor, partial curve] |
| CC(NC(=O)c1cccc(S(=O)(=O)N2CCN(Cc3ccccc3)CC2)c1)c1ccccc1Cl (stereo not drawn) | inactive |
| CC(C)c1ccccc1-n1c(SCC(=O)N2CCc3ccccc3C2)nc2ccccc2c1=O | inconclusive: 1.26 µM [inhibitor, full curve, poor fit] |
| CCOC(=O)c1sc(-c2ccc(Cl)cc2Cl)nc1O | inactive |
| N#CC(C#N)=Cc1c(N2CCN(c3ccccc3)CC2)nc2ccccn2c1=O | inconclusive: 0.0141 µM [inhibitor, full curve, poor fit] |
| O=C(CSc1ncccn1)NNC(=O)c1ccccc1 | inactive |
| O=C(Nc1cccc(S(=O)(=O)N2CCCCCC2)c1)C1CCC1 | inconclusive: 12.6 µM [inhibitor, partial curve, poor fit] |
| Cc1cc(/C=C\c2ccccc2)nc2ccccc12 | inconclusive: 7.94 µM [inhibitor, partial curve, poor fit] |
| Cc1ccc(OC(=O)c2oc3ccc(F)cc3c2C)c(C)c1 | inconclusive: 28.2 µM [inhibitor, single point] |
| Cc1cccc(OCCC(=O)OC(C)C(=O)Nc2ccc(Cl)cn2)c1 (stereo not drawn) | inactive |
| COc1ccc(-c2cc(C(=O)OCC(=O)NC3CC3)c3ccccc3n2)cc1 | inconclusive: 10 µM [inhibitor, partial curve, poor fit] |
| CC1CCC(C(C)C)C(OC(=O)Cn2c(-c3ccccc3)[n+](C)c3ccccc32)C1 (stereo not drawn) | active: 4.47 µM |
| Cc1ccc(N2CCN(/N=C/c3ccncc3)CC2)cc1 | inconclusive: 11.2 µM [inhibitor, partial curve, poor fit] |
| CC(C)(C)Nc1ncnc2c1cnn2-c1ccccc1 | inconclusive: 10 µM [inhibitor, partial curve, poor fit] |
| CCOC(=O)C1=C(C)N=C(/N=C/N(C)C)SC1c1ccccc1 (stereo not drawn) | inconclusive: 12.6 µM [inhibitor, partial curve, poor fit] |

Among those listed so far, 2 contain bromine:

| Compound | Potency |
| --- | --- |
| CCOC(=O)c1c(NC(=S)NNS(=O)(=O)c2ccc(Br)cc2)sc2c1CCCCC2 | inactive |
| O=C(c1ccc(Br)cc1)c1cc([N+](=O)[O-])ccc1N1CCOCC1 | inconclusive: 2 µM [inhibitor, full curve, poor fit] |

Continuation.

| Compound | Potency |
| --- | --- |
| CC(C)CCOCc1nc2sc3c(c2c(=O)[nH]1)CCC(C)C3 (stereo not drawn) | inactive |
| CCc1ccc(NC(=O)CSc2nc(=O)n(CCCN3CCOCC3)c3c2CCCC3)cc1 | inconclusive: 11.2 µM [inhibitor, partial curve, poor fit] |
| COc1ccc(C(=O)N2CCN(S(=O)(=O)c3ccc4c(c3)OCCO4)CC2)cc1OC | inconclusive: 12.6 µM [inhibitor, single point] |
| CN(C)CCn1cnc2c1c(=O)n(C)c(=O)n2C | inactive |
| COc1ccc(OC)c(NC2=NC3(CCCC3)N=C(N)N2)c1 | inactive |
| Cc1ccc(NC2=C(N3CCOCC3)C(=O)c3ccccc3C2=O)cc1 | inconclusive: 11.2 µM [inhibitor, single point] |
| O=c1oc2cc(O)ccc2s1 | inconclusive: 7.94 µM [inhibitor, single point] |
| CC(=O)O[C@@H]1[C@@]2(C)O[C@H]2CC[C@]23O[C@H]2[C@H](OC3=O)C2=C(C)C(=O)O[C@@]21O | inconclusive: 0.398 µM [inhibitor, full curve, poor fit] |
| Cc1ccc(-n2nc3c(N4CCC(C(=O)NCCc5cccs5)CC4)nnc(C)c3c2C)cc1 | inconclusive: 3.55 µM [inhibitor, partial curve] |
| C=CCn1cnc2c(oc3ccccc32)c1=O | inactive |
| Cc1ccc(-c2nc(CSCC(=O)NC3CCN(Cc4ccccc4)CC3)c(C)o2)cc1 | inconclusive: 17.8 µM [inhibitor, single point] |
| O=[N+]([O-])c1ccccc1S(=O)(=O)N1CCN(c2ccccc2)CC1 | inactive |
| COc1ccc(C(=O)/C=C/c2cccc(OCc3ccccc3)c2)cc1CSCC(=O)O | inconclusive: 22.4 µM [inhibitor, single point] |
| Cc1nc(Cl)sc1C(=O)Nc1ccccc1Cl | inconclusive: 12.6 µM [inhibitor, single point] |
| Cn1nccc1C(=O)N/N=C/c1c(O)ccc2ccccc12 | inconclusive: 4.47 µM [inhibitor, full curve] |
| O=C(CCS(=O)(=O)c1ccc(F)cc1)Nc1nc(-c2ccncc2)cs1 | inconclusive: 7.94 µM [inhibitor, partial curve, poor fit] |
| COc1cc(OC)cc(C(=O)NC(C(=O)O)C23CC4CC(CC(C4)C2)C3)c1 (stereo not drawn) | inactive |
| CCN1CNC(=S)N(c2ccccc2C)C1 | inactive |
| Cc1sc2ncnc(-n3nnc4ccccc43)c2c1C | inconclusive: 3.16 µM [inhibitor, partial curve, poor fit] |
| CC(C)(C)CC(=O)Nc1cccc(-c2cn3cccnc3n2)c1 | inconclusive: 10 µM [inhibitor, partial curve, poor fit] |
| O=C(COC(=O)CC1CCCC1)Nc1ccccc1[N+](=O)[O-] | inconclusive: 0.316 µM [inhibitor, full curve, poor fit] |
| COc1ccc2[nH]c(C)c(CCN(Cc3cccs3)C(=S)Nc3ccc(F)cc3)c2c1 | inconclusive: 12.6 µM [inhibitor, single point] |
